From article PMC5620058, “IL-12p35 induces expansion of IL-10 and IL-35-expressing regulatory B cells and ameliorates autoimmune disease” (Nature Communications, 2017)
Results are given in words; binding and its absence hold for the method and conditions named. Some results given as binding are weak or reduced against the parent protein; the word gives no strength. For some of these results: Tags and fused reporters may be left off the sequences shown.

Experiments:
[1] = biological target: IL-12p35 (endogenous, mouse spleen cells) (mouse (endogenous in C57BL/6 spleen cells)) (UniProt P43431); experiment: western blot of whole cell lysate; CD19+ B cells from the spleen of C57BL/6 mice 4 days after LPS injection (15 µg/mouse); whole cell lysate on SDS-PAGE, western blot
[2] = biological target: IL-12p35 (endogenous, mouse spleen cells) (mouse (endogenous in C57BL/6 spleen cells)) (UniProt P43431); experiment: western blot of whole cell lysate; spleen cell lysate of EAU mice (IRBP in CFA; untreated or treated with p35), 21 days post-immunization; western blot, non-reduced condition
[3] = biological target: T1, Ebi3 (endogenous, mouse spleen B cells) (mouse (endogenous in C57BL/6 spleen B cells)), O35228; experiment: western blot of whole cell lysate; CD19+ B cells from the spleen of C57BL/6 mice 4 days after LPS injection (15 µg/mouse); whole cell lysate on SDS-PAGE, western blot; conditions: remark: other sources report otherwise
T1 chain: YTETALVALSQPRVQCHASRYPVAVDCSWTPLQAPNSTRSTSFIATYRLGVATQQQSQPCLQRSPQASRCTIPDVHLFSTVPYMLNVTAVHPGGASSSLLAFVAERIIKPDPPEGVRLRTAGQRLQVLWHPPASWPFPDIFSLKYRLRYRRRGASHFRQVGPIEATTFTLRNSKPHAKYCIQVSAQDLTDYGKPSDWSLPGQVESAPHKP

[4] = biological target: mouse recombinant IL-12p35 (rIL-12p35; HBM-p35-Flag-His) (mouse) (UniProt P43431); experiment: AUC; sedimentation equilibrium, native conditions, reducing condition; peak fraction of Superose-6 further purified by Centricon filtration; both purified

B1: IL-12p35 (endogenous, mouse spleen cells) (protein, UniProt P43431 23-215)
chain: RVIPVSGPARCLSQSRNLLKTTDDMVKTAREKLKHYSCTAEDIDHEDITRDQTSTLKTCLPLELHKNESCLATRETSSTTRGSCLPPQKTSLMMTLCLGSIYEDLKMYQTEFQAINAALQNHNHQQIILDKGMLVAIDELMQSLNHNGETLRQKPPVGEADPYRVKMKLCILLHAFSTRVVTINRVMGYLSSA
binding [1]: binds
binding [2]: no binding (condition: spleen lysate of EAU mice)

B2: Ebi3 (endogenous, mouse spleen B cells), O35228 19-228 (protein)
chain: YTETALVALSQPRVQCHASRYPVAVDCSWTPLQAPNSTRSTSFIATYRLGVATQQQSQPCLQRSPQASRCTIPDVHLFSTVPYMLNVTAVHPGGASSSLLAFVAERIIKPDPPEGVRLRTAGQRLQVLWHPPASWPFPDIFSLKYRLRYRRRGASHFRQVGPIEATTFTLRNSKPHAKYCIQVSAQDLTDYGKPSDWSLPGQVESAPHKP
binding [3]: binds

B3: mouse recombinant IL-12p35 (rIL-12p35; HBM-p35-Flag-His) (natural protein, UniProt P43431 23-215, looked up)
chain: RVIPVSGPARCLSQSRNLLKTTDDMVKTAREKLKHYSCTAEDIDHEDITRDQTSTLKTCLPLELHKNESCLATRETSSTTRGSCLPPQKTSLMMTLCLGSIYEDLKMYQTEFQAINAALQNHNHQQIILDKGMLVAIDELMQSLNHNGETLRQKPPVGEADPYRVKMKLCILLHAFSTRVVTINRVMGYLSSA
notes: IL-12p35 (Il12a), mouse; cDNA amplified with the printed primers and cloned behind the honeybee melittin (HBM) secretion signal of pMIB; The same construct was obtained as a monomer (~27 kDa, FPLC fractions 29-30) and as a p35−p35 homodimer (~56-57 kDa, fractions 20-21); also called p35−p35; source: purified (Ni-NTA, Centricon filtration, Sephacryl S-200 and Superose-6 FPLC)
binding [4]: no binding (condition: reducing condition)
